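A panel of P. falciparum strains inside erythrocytes is exposed to compounds for three days, then a DNA-binding dye reports the amount of parasite DNA.
Each compound was titrated across a series from about 0.000037 to 29 µM.
The number is the fitted AC50, the concentration giving a half-maximal change in signal; a lower value means higher potency, whether the curve shows a decrease or an increase.
Calls follow the curve class and fit quality: every row here is inconclusive, covering signal-raising curves and weak, poorly fitted, partial or highest-dose-only inhibition curves.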

Values are in µM.
All entries here are filed as inconclusive.
These entries are mostly ones the record files as inconclusive; other results of the assay are not listed here.
Potencies fitted to partial, single-point or poorly fitting curves are rough.
The first word of each remark tells which way the curve ran; it can be opposite to the aim of the assay.

| Compound | tested on / at | fitted potency (µM) | curve as filed |
|---|---|---|---|
| `c1ccc2c(c1)OCC(C1=NCCN1)O2` (stereo unspecified) | CP335 | 15.1 | inhibitor, single point |
| `c1ccc2c(c1)OCC(C1=NCCN1)O2` (stereo unspecified) | 3D7 | 10 | inhibitor, single point |
| `c1ccc2c(c1)OCC(C1=NCCN1)O2` (stereo unspecified) | CP247 | 17.78 | inhibitor, single point |
| `c1ccc2c(c1)OCC(C1=NCCN1)O2` (stereo unspecified) | ICS | 12.59 | inhibitor, single point |
| `c1ccc2c(c1)OCC(C1=NCCN1)O2` (stereo unspecified) | GB4 | 12 | inhibitor, single point |
| `c1ccc2c(c1)OCC(C1=NCCN1)O2` (stereo unspecified) | CP237 | 12.59 | inhibitor, single point |
| `Clc1ccccc1C(c1ccccc1)(c1ccccc1)n1ccnc1` | 3D7 | 0.631 | inhibitor, full curve, poor fit |
| `Clc1ccccc1C(c1ccccc1)(c1ccccc1)n1ccnc1` | 7G8 | 0.1259 | activator |
| `Clc1ccccc1C(c1ccccc1)(c1ccccc1)n1ccnc1` | CP266 | 8.087 | inhibitor, partial curve, poor fit |
| `CC(C)c1c(CN(C)[C@@H](C)Cc2ccccc2)n(C)n(-c2ccccc2)c1=O` | W2 | 5.103 | inhibitor, single point |
| `CC(C)c1c(CN(C)[C@@H](C)Cc2ccccc2)n(C)n(-c2ccccc2)c1=O` | 7G8 | 6.31 | inhibitor, partial curve, poor fit |
| `CC(C)c1c(CN(C)[C@@H](C)Cc2ccccc2)n(C)n(-c2ccccc2)c1=O` | parasite line B | 8.912 | inhibitor, single point |
| `CC(C)c1c(CN(C)[C@@H](C)Cc2ccccc2)n(C)n(-c2ccccc2)c1=O` | ICS | 7.08 | inhibitor, single point |
| `CCS(=O)(=O)C(C)(C)S(=O)(=O)CC` | CP211 | 8.492 | inhibitor, partial curve, poor fit |
| `CCCc1ncc(C[n+]2ccccc2C)c(N)n1` | CP335 | 2.031 | inhibitor, single point |
| `CCCc1ncc(C[n+]2ccccc2C)c(N)n1` | CP215 | 9.074 | inhibitor, partial curve, poor fit |
| `CCCc1ncc(C[n+]2ccccc2C)c(N)n1` | CP262 | 9.074 | activator, partial curve, poor fit |
| `CCN(CC)CCOC(=O)C(c1ccccc1)C1CCCCC1` (stereo unspecified) | PAD | 17.78 | inhibitor, single point |
| `CCN(CC)CCOC(=O)C(c1ccccc1)C1CCCCC1` (stereo unspecified) | ICS | 0.1413 | inhibitor, full curve, poor fit |
| `CCN(CC)CCOC(=O)C(c1ccccc1)C1CCCCC1` (stereo unspecified) | PC15 | 10 | inhibitor, single point |
| `CCN(CC)CCOC(=O)C(c1ccccc1)C1CCCCC1` (stereo unspecified) | AA1029 | 10 | inhibitor, single point |
| `CCN(CC)CCOC(=O)C(c1ccccc1)C1CCCCC1` (stereo unspecified) | CP194 | 13.46 | inhibitor, partial curve, poor fit |
| `CCN(CC)CCOC(=O)C(c1ccccc1)C1CCCCC1` (stereo unspecified) | TAB113 | 2.512 | inhibitor, single point |
| `CCN(CC)CCOC(=O)C(c1ccccc1)C1CCCCC1` (stereo unspecified) | ATS95 | 11.22 | inhibitor, single point |
| `C[C@@H]1Cc2ccccc2N1NC(=O)c1ccc(Cl)c(S(N)=O)c1` (stereo partly specified) | 7G8 | 3.548 | activator, partial curve |
| `C[C@@H]1Cc2ccccc2N1NC(=O)c1ccc(Cl)c(S(N)=O)c1` (stereo partly specified) | CP325 | 7.208 | activator, partial curve, poor fit |
| `S=P(N1CC1)(N1CC1)N1CC1` | DIV30 | 12 | inhibitor, single point |
| `C=C(C)[C@H]1Cc2c(ccc3c2O[C@@H]2COc4cc(OC)c(OC)cc4[C@@H]2C3=O)O1` | CP291 | 16.94 | inhibitor, partial curve, poor fit |
| `C=C(C)[C@H]1Cc2c(ccc3c2O[C@@H]2COc4cc(OC)c(OC)cc4[C@@H]2C3=O)O1` | CP335 | 19.01 | inhibitor, partial curve, poor fit |
| `C=C(C)[C@H]1Cc2c(ccc3c2O[C@@H]2COc4cc(OC)c(OC)cc4[C@@H]2C3=O)O1` | P94_40 | 17.78 | inhibitor, single point |
| `C=C(C)[C@H]1Cc2c(ccc3c2O[C@@H]2COc4cc(OC)c(OC)cc4[C@@H]2C3=O)O1` | CP194 | 13.46 | inhibitor, partial curve, poor fit |
| `C=C(C)[C@H]1Cc2c(ccc3c2O[C@@H]2COc4cc(OC)c(OC)cc4[C@@H]2C3=O)O1` | DIV14 | 16.94 | inhibitor, single point |
| `C=C(C)[C@H]1Cc2c(ccc3c2O[C@@H]2COc4cc(OC)c(OC)cc4[C@@H]2C3=O)O1` | CP262 | 13.46 | activator, partial curve, poor fit |
| `C=C(C)[C@H]1Cc2c(ccc3c2O[C@@H]2COc4cc(OC)c(OC)cc4[C@@H]2C3=O)O1` | DIV30 | 16.94 | inhibitor, single point |
| `C=C(C)[C@H]1Cc2c(ccc3c2O[C@@H]2COc4cc(OC)c(OC)cc4[C@@H]2C3=O)O1` | DIV17 | 19.01 | inhibitor, single point |
| `C=C(C)[C@H]1Cc2c(ccc3c2O[C@@H]2COc4cc(OC)c(OC)cc4[C@@H]2C3=O)O1` | CP269 | 5.358 | inhibitor, partial curve, poor fit |
| `C=C(C)[C@H]1Cc2c(ccc3c2O[C@@H]2COc4cc(OC)c(OC)cc4[C@@H]2C3=O)O1` | GB4 | 13.46 | inhibitor, partial curve, poor fit |
| `COc1ccc(C(=O)/C(Br)=C/C(=O)O)cc1` | CP269 | 16.94 | inhibitor, single point |
| `COc1ccc(C(=O)/C(Br)=C/C(=O)O)cc1` | CP305 | 15.1 | inhibitor, partial curve, poor fit |
| `COc1ccc(C(=O)/C(Br)=C/C(=O)O)cc1` | W2 | 10.69 | inhibitor, single point |
| `COc1ccc(C(=O)/C(Br)=C/C(=O)O)cc1` | CP194 | 10.69 | inhibitor, single point |
| `COc1ccc(C(=O)/C(Br)=C/C(=O)O)cc1` | ICS | 17.78 | inhibitor, single point |
| `COc1ccc(C(=O)/C(Br)=C/C(=O)O)cc1` | CP335 | 19.01 | inhibitor, single point |
| `COc1ccc(C(=O)/C(Br)=C/C(=O)O)cc1` | SC27B | 17.78 | inhibitor, single point |
| `COc1ccc(C(=O)/C(Br)=C/C(=O)O)cc1` | AS120 | 11.22 | inhibitor, single point |
| `COc1ccc(C(=O)/C(Br)=C/C(=O)O)cc1` | TAB109 | 10 | inhibitor, single point |
| `COc1ccc(C(=O)/C(Br)=C/C(=O)O)cc1` | TAB165 | 10 | inhibitor, single point |
| `COc1ccc(C(=O)/C(Br)=C/C(=O)O)cc1` | ECU | 11.22 | inhibitor, single point |
| `COc1ccc(C(=O)/C(Br)=C/C(=O)O)cc1` | TAB113 | 17.78 | inhibitor, single point |
| `COc1ccc(C(=O)/C(Br)=C/C(=O)O)cc1` | DIV30 | 0.0005 | activator |
| `COc1ccc(C(=O)/C(Br)=C/C(=O)O)cc1` | CP217 | 10 | inhibitor, single point |
| `COc1ccc(C(=O)/C(Br)=C/C(=O)O)cc1` | 3D7 | 12.59 | inhibitor, single point |
| `COc1ccc(C(=O)/C(Br)=C/C(=O)O)cc1` | GB4 | 19.01 | inhibitor, single point |
| `COc1ccc(C(=O)/C(Br)=C/C(=O)O)cc1` | CP211 | 9.528 | inhibitor, partial curve |

The last 4 entries again:

Compound,tested on / at,fitted potency (µM),curve as filed
COc1ccc(C(=O)/C(Br)=C/C(=O)O)cc1,CP217,10,"inhibitor, single point"
COc1ccc(C(=O)/C(Br)=C/C(=O)O)cc1,3D7,12.59,"inhibitor, single point"
COc1ccc(C(=O)/C(Br)=C/C(=O)O)cc1,GB4,19.01,"inhibitor, single point"
COc1ccc(C(=O)/C(Br)=C/C(=O)O)cc1,CP211,9.528,"inhibitor, partial curve"

Data taken from PubChem BioAssay AID504749, deposited by NCATS (2011).